This assay has as its system L1210 leukemia ip in BDF1 mice, survival T/C. As to the kind of experiment: NCI In Vivo Anticancer Drug Screen. Data for tumor model L1210 Leukemia (intraperitoneal) in B6D2F1 (BDF1) mice. The conditions noted are these: T/C endpoint: mean survival time, higher T/C = longer survival.
Setting [1] is: dose: 100.0 mg/kg/injection, schedule: Q04DX003 (ip), vehicle: saline.
Where [2] appears, read: dose: 200.0 mg/kg/injection, schedule: Q04DX003 (ip), vehicle: saline.
Setting [3] is: dose: 400.0 mg/kg/injection, schedule: Q04DX003 (ip), vehicle: saline.
Setting [4] is: dose: 100.0 mg/kg/injection, schedule: Q01DX009 (ip), vehicle: saline with Tween-80.
Where [5] appears, read: dose: 100.0 mg/kg/injection, schedule: Q04DX003 (ip), vehicle: Klucel (hydroxypropylcellulose) (HPC).
[6] abbreviates: dose: 200.0 mg/kg/injection, schedule: Q04DX003 (ip), vehicle: Klucel (hydroxypropylcellulose) (HPC).
Setting [7] is: dose: 400.0 mg/kg/injection, schedule: Q04DX003 (ip), vehicle: Klucel (hydroxypropylcellulose) (HPC).
Where [8] appears, read: dose: 100.0 mg/kg/injection, schedule: Q04DX002 (ip), vehicle: gum acacia.

The list shows only some results of the screen, not a fair sample: it covers a few groups of compounds. Not every dose and run of a compound is shown. T/C is the treated group as % of the vehicle group. Some entries give survivors of the animals treated and no T/C: the source files T/C as zero there, which appears to mark a toxic dose or a test without result, not a measured value. Some survivor counts are full or nearly so, which does not show that the dose was tolerated: survival well below the control is almost never listed, so the zero probably covers shortened survival too. Survivors were counted at the toxicity check, usually on the fifth day, unless a day is given; later deaths do not show. Schedules are NCI's codes, taken here to give the interval after Q, in days (D) or hours (H), and the number of doses after X. Where survival is the endpoint, the PubChem record calls one and a half times the control and up active, and a quarter to a half above the control has no call in these data; cut-offs in other NCI protocols can differ. Some entries hold several experiments; their values stand side by side, smallest first. Some entries show no survivor count and are marked so; the dose need not have been tolerated. Some complexes appear as separate parts, the way the source draws them; their charges need not add up. Some T/C values are followed by the survivors on the day toxicity was checked, most often the fifth; where neither a count nor a note follows, no animal had died by that day.

On to `CCC(Sc1ccccc1[N+](=O)[O-])([N+](=O)[O-])[N+](=O)[O-]`, for which the T/C runs as follows: (dose: 100.0 mg/kg/injection, schedule: Q01DX009 (ip), vehicle: acetone) 96 % of control; under setting [1], 91 % of control; (dose: 200.0 mg/kg/injection, schedule: Q01DX009 (ip), vehicle: acetone) 91 % of control; under setting [2], 93 % of control [5 of 6 alive]; under setting [3], 95 % of control [5 of 6 alive]. Where the note is “dose: 400.0 mg/kg/injection, schedule: Q01DX009 (ip), vehicle: acetone”, the survivor count was 6 of 6.
`Nc1cc([As](=O)(O)O)ccc1O`: the T/C (dose: 2.5 mg/kg/injection, schedule: Q01DX009 (ip), vehicle: saline with Tween-80) is 111 % of control; the T/C (dose: 5.0 mg/kg/injection, schedule: Q01DX009 (ip), vehicle: saline with Tween-80) is 97 % of control; the T/C (dose: 10.0 mg/kg/injection, schedule: Q01DX009 (ip), vehicle: saline with Tween-80) is 97 % of control.
`CCCCSC(C[N+](=O)[O-])C(Cl)(Cl)Cl` (stereo not given): the T/C reads like this: under setting [4], 88 % of control; (dose: 100.0 mg/kg/injection, schedule: Q04DX003 (ip), vehicle: saline with Tween-80) 98 % of control; (dose: 200.0 mg/kg/injection, schedule: Q01DX009 (ip), vehicle: saline with Tween-80) 91 % of control; (dose: 200.0 mg/kg/injection, schedule: Q04DX003 (ip), vehicle: saline with Tween-80) 98 % of control; (dose: 400.0 mg/kg/injection, schedule: Q01DX009 (ip), vehicle: saline with Tween-80) 90 % of control; (dose: 400.0 mg/kg/injection, schedule: Q04DX003 (ip), vehicle: saline with Tween-80) 101 % of control.
For `ClCCN1Cc2ccccc2CCc2ccccc2C1`, the T/C under setting [5] is 112 % of control and the T/C under setting [6] was 107 % of control. Also, under setting [7], the survivor count is given as 3 of 6.
Regarding `OP(Oc1ccccc1)Oc1ccccc1.[Hg]`, the T/C is, setting by setting: under setting [1], 103 % of control; under setting [2], 97 % of control; under setting [3], 110 % of control.
As to `O=C(O)C(O)(c1ccccc1)c1ccccc1.c1ccc(C(c2ccccc2)n2cc[n+](C(c3ccccc3)c3ccccc3)c2)cc1`, the T/C by setting is: (dose: 25.0 mg/kg/injection, schedule: Q04DX002 (ip), vehicle: gum acacia) 107 % of control [survivor count not shown]; (dose: 50.0 mg/kg/injection, schedule: Q04DX002 (ip), vehicle: gum acacia) 88 % of control [survivor count not shown]; under setting [8], 105 % of control [survivor count not shown].
Take `O=C(NNc1ccccc1)NP(=O)(NC(=O)NNc1ccccc1)NC(=O)NNc1ccccc1`: the T/C by setting is: (dose: 50.0 mg/kg/injection, schedule: Q01DX001 (ip), vehicle: saline) 97 % of control; (dose: 100.0 mg/kg/injection, schedule: Q01DX001 (ip), vehicle: saline) 97 % of control; (dose: 200.0 mg/kg/injection, schedule: Q01DX001 (ip), vehicle: saline) 100 % of control; (dose: 400.0 mg/kg/injection, schedule: Q01DX001 (ip), vehicle: saline) 94 % of control.
Regarding `CCN(CC)CCOC(=O)C(O)(c1ccccc1)c1cc(C)cc(C)c1` (stereo not given), the T/C is, setting by setting: (dose: 75.0 mg/kg/injection, schedule: Q01DX001 (ip), vehicle: other) 98 % of control; (dose: 150.0 mg/kg/injection, schedule: Q01DX001 (ip), vehicle: other) 101 % of control.
Regarding `CP(=S)(Nc1ccccc1)Nc1ccccc1`, the T/C runs as follows: under setting [8], 108 % of control [survivor count not shown]; (dose: 200.0 mg/kg/injection, schedule: Q04DX002 (ip), vehicle: gum acacia) 105 % of control [survivor count not shown]; (dose: 400.0 mg/kg/injection, schedule: Q04DX002 (ip), vehicle: gum acacia) 111 % of control [survivor count not shown].
As for `O=CCc1ccc(N(CCCl)CCCl)cc1`, the T/C was 106 % of control [5 of 6 alive] (dose: 100.0 mg/kg/injection, schedule: Q01DX009 (ip), vehicle: Klucel (hydroxypropylcellulose) (HPC)); 101 % of control under setting [5]; 135 % of control (dose: 200.0 mg/kg/injection, schedule: Q01DX009 (ip), vehicle: Klucel (hydroxypropylcellulose) (HPC)); 102 % of control under setting [6]; 87 % of control (dose: 400.0 mg/kg/injection, schedule: Q01DX009 (ip), vehicle: Klucel (hydroxypropylcellulose) (HPC)); 109 % of control under setting [7].
For `ClCCN1Cc2ccccc2C1`, the T/C is 101 % of control (dose: 25.0 mg/kg/injection, schedule: Q04DX002 (ip), vehicle: saline); 101 % of control (dose: 50.0 mg/kg/injection, schedule: Q04DX002 (ip), vehicle: saline); 92 and 101 % of control (dose: 100.0 mg/kg/injection, schedule: Q04DX002 (ip), vehicle: saline). For the same compound, the survivor count is, setting by setting: (dose: 200.0 mg/kg/injection, schedule: Q04DX002 (ip), vehicle: saline) 2 of 3; (dose: 400.0 mg/kg/injection, schedule: Q04DX002 (ip), vehicle: saline) 0 of 3.
`C1COP(OCCOP2OCCO2)O1`: the T/C runs as follows: (dose: 50.0 mg/kg/injection, schedule: Q01DX009 (ip), vehicle: saline) 98 % of control [5 of 6 alive]; (dose: 50.0 mg/kg/injection, schedule: Q04DX003 (ip), vehicle: saline) 100 % of control; (dose: 100.0 mg/kg/injection, schedule: Q01DX009 (ip), vehicle: saline) 94 % of control; under setting [1], 100 % of control; under setting [2], 94 % of control. The survivor count (dose: 200.0 mg/kg/injection, schedule: Q01DX009 (ip), vehicle: saline) is recorded as 3 of 6.
`O=C(Nc1cc(F)c([N+](=O)[O-])cc1[N+](=O)[O-])c1cc([N+](=O)[O-])cc([N+](=O)[O-])c1`: the T/C runs as follows: (dose: 6.25 mg/kg/injection, schedule: Q01DX009 (ip), vehicle: Klucel (hydroxypropylcellulose) (HPC)) 98 % of control; (dose: 12.5 mg/kg/injection, schedule: Q01DX009 (ip), vehicle: Klucel (hydroxypropylcellulose) (HPC)) 99 % of control; (dose: 25.0 mg/kg/injection, schedule: Q01DX009 (ip), vehicle: Klucel (hydroxypropylcellulose) (HPC)) 99 % of control.
With `CCOC(=O)CF`, the T/C (dose: 10.0 mg/kg/injection, schedule: Q01DX001 (ip), vehicle: acetone) is 114 % of control [5 of 6 alive]. Besides, the survivor count (dose: 20.0 mg/kg/injection, schedule: Q01DX001 (ip), vehicle: acetone) is listed as 0 of 6; the survivor count (dose: 40.0 mg/kg/injection, schedule: Q01DX001 (ip), vehicle: acetone) is on record as 0 of 6; the survivor count (dose: 75.0 mg/kg/injection, schedule: Q01DX001 (ip), vehicle: saline) is recorded as 1 of 6; the survivor count (dose: 150.0 mg/kg/injection, schedule: Q01DX001 (ip), vehicle: saline) is recorded as 0 of 6; the survivor count (dose: 300.0 mg/kg/injection, schedule: Q01DX001 (ip), vehicle: saline) is given as 0 of 6.
For the compound `O=[N+]([O-])c1ccc(Cl)c2c1no[n+]2[O-]`, the T/C reads like this: (dose: 10.0 mg/kg/injection, schedule: Q04DX003 (ip), vehicle: saline with Tween-80) 100 % of control; (dose: 20.0 mg/kg/injection, schedule: Q04DX003 (ip), vehicle: saline with Tween-80) 100 % of control [3 of 4 alive]. Under “dose: 40.0 mg/kg/injection, schedule: Q04DX003 (ip), vehicle: saline with Tween-80”, the survivor count is 3 of 4.
Take `ClC1CCC2C=CCC1S2` (stereo not given): the T/C reads like this: (dose: 25.0 mg/kg/injection, schedule: Q01DX009 (ip), vehicle: saline with Tween-80) 92 % of control; (dose: 50.0 mg/kg/injection, schedule: Q01DX009 (ip), vehicle: saline with Tween-80) 96 % of control; under setting [4], 92 and 94 % of control.

The values above are taken from PubChem BioAssay AID248 (DTP/NCI, 2004).
